The test concerns the target FLAG-tagged SnRK1α1 (Arabidopsis). In words: co-IP.

These are yes or no findings as the source states them, for the method shown. Binding seen in cells or lysates may run through a third protein. Binding calls can cover weak binding; strength is not graded here. Sequences can lack the tags named with a protein.

The results in this text go back to doi:10.1101/2022.11.21.517319.

B1: HA-tagged bHLH2 (protein, UniProt Q9CAD0 1-596)
chain: MATGENRTVPDNLKKQLAVSVRNIQWSYGIFWSVSASQPGVLEWGDGYYNGDIKTRKTIQAAEVKIDQLGLERSEQLRELYESLSLAESSASGSSQVTRRASAAALSPEDLTDTEWYYLVCMSFVFNIGEGIPGGALSNGEPIWLCNAETADSKVFTRSLLAKSASLQTVVCFPFLGGVLEIGTTEHIKEDMNVIQSVKTLFLEAPPYTTISTRSDYQEIFDPLSDDKYTPVFITEAFPTTSTSGFEQEPEDHDSFINDGGASQVQSWQFVGEEISNCIHQSLNSSDCVSQTFVGTTGRLACDPRKSRIQRLGQIQEQSNHVNMDDDVHYQGVISTIFKTTHQLILGPQFQNFDKRSSFTRWKRSSSVKTLGEKSQKMIKKILFEVPLMNKKEELLPDTPEETGNHALSEKKRREKLNERFMTLRSIIPSISKIDKVSILDDTIEYLQDLQKRVQELESCRESADTETRITMMKRKKPDDEEERASANCMNSKRKGSDVNVGEDEPADIGYAGLTDNLRISSLGNEVVIELRCAWREGILLEIMDVISDLNLDSHSVQSSTGDGLLCLTVNCKHKGTKIATTGMIQEALQRVAWIC
B1: the binding entry is on record as “binds”.

B2: HA-tagged TTG1 (protein, UniProt Q9XGN1 1-341)
chain: MDNSAPDSLSRSETAVTYDSPYPLYAMAFSSLRSSSGHRIAVGSFLEDYNNRIDILSFDSDSMTVKPLPNLSFEHPYPPTKLMFSPPSLRRPSSGDLLASSGDFLRLWEINEDSSTVEPISVLNNSKTSEFCAPLTSFDWNDVEPKRLGTCSIDTTCTIWDIEKSVVETQLIAHDKEVHDIAWGEARVFASVSADGSVRIFDLRDKEHSTIIYESPQPDTPLLRLAWNKQDLRYMATILMDSNKVVILDIRSPTMPVAELERHQASVNAIAWAPQSCKHICSGGDDTQALIWELPTVAGPNGIDPMSVYSAGSEINQLQWSSSQPDWIGIAFANKMQLLRV
With B2, the binding entry is reported as “binds”.

B3: HA-tagged MYB75 (protein, UniProt Q9FE25 1-248)
chain: MEGSSKGLRKGAWTTEEDSLLRQCINKYGEGKWHQVPVRAGLNRCRKSCRLRWLNYLKPSIKRGKLSSDEVDLLLRLHRLLGNRWSLIAGRLPGRTANDVKNYWNTHLSKKHEPCCKIKMKKRDITPIPTTPALKNNVYKPRPRSFTVNNDCNHLNAPPKVDVNPPCLGLNINNVCDNSIIYNKDKKKDQLVNNLIDGDNMWLEKFLEESQEVDILVPEATTTEKGDTLAFDVDQLWSLFDGETVKFD
On to B3, for which the binding entry is given as “binds”.
